# Source: article PMC7819943, “Rice protein-binding microarrays: a tool to detect cis-acting elements near promoter regions in rice”
# The list shows a part of the results.
# Molecular target: T1, OsSMF1 (Oryza sativa, UniProt Q6ZLB0 1-436)
# T1 sequence: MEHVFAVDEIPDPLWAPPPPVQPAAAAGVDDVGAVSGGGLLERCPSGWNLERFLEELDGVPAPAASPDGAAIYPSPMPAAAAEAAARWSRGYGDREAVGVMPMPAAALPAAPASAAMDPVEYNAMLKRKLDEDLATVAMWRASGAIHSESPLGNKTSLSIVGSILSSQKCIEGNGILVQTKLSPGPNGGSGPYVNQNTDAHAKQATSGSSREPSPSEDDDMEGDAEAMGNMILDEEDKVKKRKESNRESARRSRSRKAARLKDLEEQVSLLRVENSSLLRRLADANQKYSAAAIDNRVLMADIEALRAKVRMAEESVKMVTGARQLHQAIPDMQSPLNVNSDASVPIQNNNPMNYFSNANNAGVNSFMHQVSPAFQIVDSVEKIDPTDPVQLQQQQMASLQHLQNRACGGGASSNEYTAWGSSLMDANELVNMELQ
# Experiment: protein-binding microarray (RPBM); PBS, 2% BSA, 51.3 ng/ul salmon testes DNA, 50 uM zinc acetate, 200 nM TF, 25 C, 1 h; high values mean tight binding
# Conditions: protein: recombinant; tags: N-terminal polyhistidine and DsRed monomer fusion (pET32a); chain copies: 2; label: CyDye5-dUTP incorporated in the synthesized complementary strand; 3' TTTTT single-stranded linker to array surface; dsDNA, one strand shown
# How it was run: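 An Axon 4000B scanner gave the binding signal as per-feature fluorescence intensity in arbitrary units. This followed washing of a custom Agilent array that had been incubated for 1 h at 25 °C with 200 nM protein in PBS, 2% BSA, salmon testes DNA and 50 µM zinc acetate. The proteins were transcription factors fused at the N-terminus to polyhistidine and DsRed, expressed in E. coli BL21-CodonPlus and purified on Ni–NTA.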
row,Sequence,binding signal
1,TCCTCCACCATCCACATATGTTCGTCAACAAGATAAGCATCGGAGTCACCTAGTGCAG,3480 fluorescence intensity (a.u.)
2,ATCCATCGTCTTTACACGTACTTACCTTGCTAACCGCACTCGGAGTCACCTAGTGCAG,6330 fluorescence intensity (a.u.)
3,CGTGTGCGTGTTGACTTCCACGTCAGCCTTGCCCTTCATCCGGAGTCACCTAGTGCAG,24300 fluorescence intensity (a.u.)
4,GGAGATGTGGGGTGCTCATTTTGAGACAATTATGCTGGTCCGGAGTCACCTAGTGCAG,3440 fluorescence intensity (a.u.)
5,TGATGTACACAGCCAGATTTTACACGGTGGCCGCCGCGCTCGGAGTCACCTAGTGCAG,3360 fluorescence intensity (a.u.)
6,ATTGTCAACTCCTCTTGTTGATGACCATGTCAGAATTTCCCGGAGTCACCTAGTGCAG,5340 fluorescence intensity (a.u.)
7,CCTAAATTCGGCCTAATTCCAAGTAAAGTGGGCCGTTTCGCGGAGTCACCTAGTGCAG,14300 fluorescence intensity (a.u.)
8,GTTGAATTCTGTGCGTGTAAGCAGACCTGCATTGCCGTCGCGGAGTCACCTAGTGCAG,3170 fluorescence intensity (a.u.)
9,TGTTTTCTTGGCGTGTTGCAGAGGACAAGTTCGCGTGGCTCGGAGTCACCTAGTGCAG,3480 fluorescence intensity (a.u.)
10,AATCGGCTGCCCTGCCCGCGTAAGCAAATGAAGATCATTTCGGAGTCACCTAGTGCAG,3500 fluorescence intensity (a.u.)
11,TTGCTTTTGCGGATGACTTGGACAAGTTGGACGCCATACTCGGAGTCACCTAGTGCAG,5370 fluorescence intensity (a.u.)
12,CGGGGAGGGGAGCGGAGTACGGAGCTAACCTGCGACTCTGCGGAGTCACCTAGTGCAG,3310 fluorescence intensity (a.u.)
13,GGGAAAGGGTCTCTGCCTCAGTGTCTCACAGACAGGTGGGCGGAGTCACCTAGTGCAG,3420 fluorescence intensity (a.u.)
14,CCCGCCGCGGCTTCCTCTACGGGTTCGTCTTCAACCGCCACGGAGTCACCTAGTGCAG,3680 fluorescence intensity (a.u.)
15,ATGCTCCCGCCGCCGCCTCCGCCGCAATCCGAGTCATCGGCGGAGTCACCTAGTGCAG,7570 fluorescence intensity (a.u.)
16,CATCGCTGTTAACCCAGCGACCAGCGTGGCAGAGCAAACTCGGAGTCACCTAGTGCAG,3250 fluorescence intensity (a.u.)
17,CAATGCTAGCCGCGCAATCTGCGCGGGCCACCATGCTATTCGGAGTCACCTAGTGCAG,3430 fluorescence intensity (a.u.)
18,AACCTAATTAAAGATGATGATTCACCGGCAATCATTGCAACGGAGTCACCTAGTGCAG,4040 fluorescence intensity (a.u.)
19,CGTCTTGACATATGGGGCCACGCTGACTCACCCGCCACATCGGAGTCACCTAGTGCAG,11200 fluorescence intensity (a.u.)
20,TGTCAAATCATGACGCAATTAGGCTCAGAAGATTCGTCTCCGGAGTCACCTAGTGCAG,4030 fluorescence intensity (a.u.)
21,AAGATTAAAGCATGCAGGAGGGCGCCTATTAAAATGGACGCGGAGTCACCTAGTGCAG,17400 fluorescence intensity (a.u.)
22,AGCACGGACATATTACTAGTTACATTAAATATTAGTCAAACGGAGTCACCTAGTGCAG,33800 fluorescence intensity (a.u.)
23,ACAGGTGGGTGGATTGAGGATAAACTATTGGTTCCTACAGCGGAGTCACCTAGTGCAG,3390 fluorescence intensity (a.u.)
24,GACAAACTCCAGGGCTTGATGTTCCATGTCAGCACGTTGGCGGAGTCACCTAGTGCAG,4040 fluorescence intensity (a.u.)
25,ACACGCCACGCCGCCACCTCCACTTCGTTAACCCTTCTCCCGGAGTCACCTAGTGCAG,5410 fluorescence intensity (a.u.)
26,AGTGGAGAGAGTACCTACCCCAAGACCCTGATAAATTGGTCGGAGTCACCTAGTGCAG,3160 fluorescence intensity (a.u.)
27,CACTACCGACCTAGACCGCCTTGGCTGCCACGAAACCCCTCGGAGTCACCTAGTGCAG,4096 fluorescence intensity (a.u.)

# Two entries from above, bar-delimited:
row | Sequence | binding signal
6 | ATTGTCAACTCCTCTTGTTGATGACCATGTCAGAATTTCCCGGAGTCACCTAGTGCAG | 5340 fluorescence intensity (a.u.)
7 | CCTAAATTCGGCCTAATTCCAAGTAAAGTGGGCCGTTTCGCGGAGTCACCTAGTGCAG | 14300 fluorescence intensity (a.u.)

# Additional records follow.

row,Sequence,binding signal
1,CCCAAACCTTATCTCCTGGAGTAGTCACCTCCACGAACCCCGGAGTCACCTAGTGCAG,3190 fluorescence intensity (a.u.)
2,ATTCAGTACGATTAATTTATTCTGGACGGAGGGAGGGAGTCGGAGTCACCTAGTGCAG,3400 fluorescence intensity (a.u.)
3,TGATTACTAGTACTCCCACGTGGCCACGTCCTACCCCATCCGGAGTCACCTAGTGCAG,14800 fluorescence intensity (a.u.)
4,ATATATATATATATATATATATATATATATATATATATATCGGAGTCACCTAGTGCAG,3370 fluorescence intensity (a.u.)
5,TATTTGTGAGAGTGTGAACGGTTGTGACTACCCTCAGTCCCGGAGTCACCTAGTGCAG,3880 fluorescence intensity (a.u.)
6,ATCCAGTATATAAACATCCGATGTGACGTGGACTAAAGTTCGGAGTCACCTAGTGCAG,19000 fluorescence intensity (a.u.)
7,CCGCCGCCGCCCGATCGCCGCGTCCTCCGCTCCGCACCCTCGGAGTCACCTAGTGCAG,3490 fluorescence intensity (a.u.)
8,CCTGTGTAAATTCCTTGTGAATTCTTGTGTAAAATTCTGACGGAGTCACCTAGTGCAG,16600 fluorescence intensity (a.u.)
9,AGGAGGAGCGGTGCGACAACTGATGTGGCAGCTCCTCGACCGGAGTCACCTAGTGCAG,6750 fluorescence intensity (a.u.)
10,TGCGACCACGCGGCGATCCAACGGCCACGGAGACGCTCCTCGGAGTCACCTAGTGCAG,4040 fluorescence intensity (a.u.)
11,TGATTGTAAAAGTAAAATCTAGCCTACGTATTGCAAGATTCGGAGTCACCTAGTGCAG,3260 fluorescence intensity (a.u.)
12,TTTTCTATAAATTTAGTCAAATATAACAAAGTTTGATTAGCGGAGTCACCTAGTGCAG,42600 fluorescence intensity (a.u.)
13,AGTCCACAAAGGCATCATCGCATACGTGGGTTGCCGAATACGGAGTCACCTAGTGCAG,4400 fluorescence intensity (a.u.)
14,AACCACACGGATCGACGTGACTGTTGCTCCGCTTGAGATACGGAGTCACCTAGTGCAG,3740 fluorescence intensity (a.u.)
15,GTTGTATATATATTTTAATGAATGTGAAACACGGTGATGGCGGAGTCACCTAGTGCAG,31100 fluorescence intensity (a.u.)
16,ACCGCTCGATATCCAGCTAGCTGACTAGGTGTGCTCTACCCGGAGTCACCTAGTGCAG,4630 fluorescence intensity (a.u.)
17,ATCAGCCCCGCCTTCGCCACGCACCACGTCTGCCCGCCCGCGGAGTCACCTAGTGCAG,6470 fluorescence intensity (a.u.)
18,TCCCGCGTCGTCTTCGCCGCCGCCACCGCCGCCACGTCGCCGGAGTCACCTAGTGCAG,10800 fluorescence intensity (a.u.)
19,TCCTCCATGATTACAGTCGACCAGGTGATTGGACGGTGCGCGGAGTCACCTAGTGCAG,3490 fluorescence intensity (a.u.)
20,CTTCCCGCCGCCGCCACTGCCACGAACAGTTCGCTCACCGCGGAGTCACCTAGTGCAG,3200 fluorescence intensity (a.u.)
21,CCTCCCTCTATGGCCACGCCACCGCCGCTGCCCCTCCTCTCGGAGTCACCTAGTGCAG,3710 fluorescence intensity (a.u.)
22,CAGGAATTTCCACGTCAATGCCGGAATAAATCGGCAGGGTCGGAGTCACCTAGTGCAG,10300 fluorescence intensity (a.u.)
23,TGGTAACTAAACTGCCATGTCAGGGACAGATCGACCAGTGCGGAGTCACCTAGTGCAG,5160 fluorescence intensity (a.u.)
24,CAAGCAATGATTGGATTGGATGCTGACGATGAAACGAACCCGGAGTCACCTAGTGCAG,3380 fluorescence intensity (a.u.)
25,CGCCGCCTCGCCCACCGCGCACTCGTCCAGGGCGGCTCCACGGAGTCACCTAGTGCAG,3450 fluorescence intensity (a.u.)
26,GTGGATGTGACACGTGGCGGATCATGGTTGGTCCGTGATTCGGAGTCACCTAGTGCAG,19100 fluorescence intensity (a.u.)
27,TTCGTGGATGGGGTGGGCTCTTTCTCACTGTTATATTGTCCGGAGTCACCTAGTGCAG,3950 fluorescence intensity (a.u.)
